Measurements from PubChem BioAssay AID1347423 (Functional Genomics Laboratory (NCATS/FGL), 2020).
Hit rate of the full screen: of about 52,000 sequences, about 210 (0.4%) were called active.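 How the source made its calls: active means gene whose silencing raises cell survival under the drug, median off-target-corrected z-score across its silencing RNAs 2 or more; inactive means the rest.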 Some of the results follow.

experiment: Resistance to Poly (ADP-Ribose) Polymerase inhibitor: Gene Identification via Genome-wide siRNA Screen; settings: mouse BRCA2 R2336H ES cells, olaparib, CellTiter-Glo viability; active compounds read high
Procedure, shortened: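 Mouse BRCA2 R2336H ES cells were reverse-transfected with siRNA (20 nM final), treated at 48 h with 500 nM olaparib, and read by CellTiter-Glo after 72 h. Scores: MAD-based z per siRNA, median per gene, seed off-target correction.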

Sequence | z-score
GGACUUUGUGGACAAAAUUTT against 0610009H04Rik | inactive: -0.266
CCCAAGUGGUAAGAUUGGUTT against Rps3 | inactive: -2.3
GGGACACUAGAAGUAGGGATT against Pramel5 | inactive: 0.667
CCCUAGACCAGUAAAUACCTT against 1110002H13Rik | inactive: 1.38
AGGAAAGAAAAUAUGCUGATT against Cox17 | inactive: 0.48
GGACUCUUUUCUACGUGGATT against Klhl1 | active: 3.47
GCAUGUAUGCUGGAAAAUCTT against MGC107415 | inactive: -0.759
GGGCAAUGAUUUAUACCAUTT against Atp5b | inactive: 2.57
CGAGUUCGGUAUGAGUGGATT against Clptm1 | inactive: -1.24
CGCGACAGAAUCAGUACAATT against Hnf4g | inactive: 1.11
GGGUGAAUAAAUAAAGCUGTT against 2610040C18Rik | inactive: -0.451
GAGAAACAACAAUUUGGGATT against LOC435023 | inactive: -0.531
GGAAGAUUCAGCCUUUAGATT against Hcr | inactive: 0.96
GGUACUUUGAUGACGAGUUTT against Akt2 | inactive: -0.562
CGAUGAAUUUAGGAGAUCUTT against AF397014 | inactive: -0.19
GGCAAAUUGAGUUUUAGCATT against Waspip | inactive: -0.0406
GGGCCAGCUUUCAAUAUUGTT against Man2a1 | inactive: -0.63
GCUCGAAAUGACGUGUACATT against Gna-rs1 | inactive: -0.944
GGAUACUGGCAUGAAAUUGTT against Slc22a2 | inactive: -0.619
CGAUGGUCGAAGGAUUGUCTT against Tnfsf4 | inactive: -0.645
CCAUUUCAGGCAUGAAGAATT against Tsga10 | inactive: -1.3
GGGAUGCUGUAGAUAUUAATT against Fcgr2b | inactive: 0.654
GGUGCUCGAAAACUGGUUCTT against Tbrg1 | inactive: 1.38
GGUGUUCAGAUGGUUCCCATT against Exosc1 | inactive: -1.62
GCACUUAAGACCAAGCCUCTT against Odd1 | inactive: -0.0829
GCCCAAAGUGAUUCACUAGTT against Acvrl1 | inactive: 0.34
GCCUCUGAAAGUGUAAUUATT against 1700039D13Rik | inactive: -0.85
GGAUGUUCUGAGGACCAACTT against Cct6a | inactive: -3.2
CCCUAUUGAGAAGUGUAUGTT against Il4i1 | inactive: 0.79

Laid out differently: entries from further up.

| Sequence | z-score |
| --- | --- |
| CCCAAGUGGUAAGAUUGGUTT against Rps3 | inactive: -2.3 |
| GGGACACUAGAAGUAGGGATT against Pramel5 | inactive: 0.667 |
| CCCUAGACCAGUAAAUACCTT against 1110002H13Rik | inactive: 1.38 |
| AGGAAAGAAAAUAUGCUGATT against Cox17 | inactive: 0.48 |
| GGACUCUUUUCUACGUGGATT against Klhl1 | active: 3.47 |
| GCAUGUAUGCUGGAAAAUCTT against MGC107415 | inactive: -0.759 |
| GGGCAAUGAUUUAUACCAUTT against Atp5b | inactive: 2.57 |
| CGAGUUCGGUAUGAGUGGATT against Clptm1 | inactive: -1.24 |
| CGCGACAGAAUCAGUACAATT against Hnf4g | inactive: 1.11 |
